According to article PMC9853200:

Molecular target: duck TRIM29 with N-terminal HA tag (duTRIM29-HA), full length (duck)
Test: co-IP; HEK293T cells cotransfected, 24 h; NP-40 lysis buffer with 1% PMSF; lysate incubated with anti-HA agarose beads 4-6 h at 4°C; immunoblot

binding: no binding
B1: full-length duck RIG-I with C-terminal MYC tag (duRIG-I-MYC) (protein, UniProt D3TI84 1-933)
chain: MTADEKRSLQCYRRYIERSLNPVYVLGNMTDWLPDELRERIRKEEERGVSGAAALFLDAVLQLEARGWFRGMLDAMLAAGYTGLAEAIENWDFSKLEKLELHRQLLKRIEATMLEVDPVALIPYISTCLIDRECEEIQQISENRSKAAGITKLIECLCRSDKEHWPKSLQLALDTTGYYRASELWDIREDNAKDVDSEMTDASEDCLEASMTYSEEAEPDDNLSENLGSAAEGIGKPPPVYETKKARSYQIELAQPAINGKNALICAPTGSGKTFVSILICEHHFQNMPAGRKAKVVFLATKVPVYEQQKNVFKHHFERQGYSVQGISGENFSNVSVEKVIEDSDIIVVTPQILVNSFEDGTLTSLSIFTLMIFDECHNTTGNHPYNVLMTRYLEQKFNSASQLPQILGLTASVGVGNAKNIEETIEHICSLCSYLDIQAISTVRENIQELQRFMNKPEIDVRLVKRRIHNPFAAIISNLMSETEALMRTIYSVDTLSQNSKKDFGTQNYEHWIVVTQRKCRLLQLEDKEEESRICRALFICTEHLRKYNDALIISEDARIIDALSYLTEFFTNVKNGPYTELEQHLTAKFQEKEPELIALSKDETNENPKLEELVCILDDAYRYNPQTRTLLFAKTRALVSALKKCMEENPILNYIKPGVLMGRGRRDQTTGMTLPSQKGVLDAFKTSKDNRLLIATSVADEGIDIVQCNLVVLYEYSGNVTKMIQVRGRGRAAGSKCILVTSKTEVVENEKCNRYKEEMMNKAVEKIQKWDEETFAKKIHNLQMKERVLRDSRRKEIKPKVVEGQKNLLCGKCKAYACSTDDIRIIKDSHHIVLGEAFKERYTTKPHKKPMQFDGFEKKSKMYCRNNNCQHDWGITVKYLTFDNLPVIKIKSFVMESTATGTQMDFQKWKSINSSLKNFDVEEMSNLYPPF

These are yes or no findings as the source states them, for the method shown. Binding seen in cells or lysates may run through a third protein. Where a sequence is shown, tags or fusion partners need not be part of it.
